The values below come from PubChem BioAssay AID248 (DTP/NCI, 2004).

For this assay, the system named is L1210 leukemia ip in BDF1 mice, survival T/C. Nature of the assay: NCI In Vivo Anticancer Drug Screen. Data for tumor model L1210 Leukemia (intraperitoneal) in B6D2F1 (BDF1) mice. Conditions: T/C endpoint: mean survival time, higher T/C = longer survival.
Where [1] appears, read: dose: 200.0 mg/kg/injection, schedule: Q01DX001 (ip), vehicle: carboxymethylcellulose (CMC).
[2] abbreviates: dose: 400.0 mg/kg/injection, schedule: Q01DX001 (ip), vehicle: carboxymethylcellulose (CMC).
The mark [3] stands for this setting: dose: 400.0 mg/kg/injection, schedule: Q01DX001 (ip), vehicle: saline.
Where [4] appears, read: dose: 400.0 mg/kg/injection, schedule: Q04DX002 (ip), vehicle: saline with Tween-80.

The list does not hold the whole screen: it is rich in T/C values a quarter to a half above the control, in often repeated tests (any T/C) and in doses without a T/C. Other doses and runs of a compound stand elsewhere. T/C: endpoint of the treated group in % of that of the vehicle group. Some entries give survivors of the animals treated and no T/C: the source holds a T/C of zero for them, seemingly a mark for toxic or unscored doses. Some survivor counts are full or nearly so, which does not show that the dose was tolerated: survival well below the control is almost never listed, so the zero probably covers shortened survival too. Survivors were counted at the toxicity check, usually on the fifth day, unless a day is given; later deaths do not show. Schedule codes are those of the source, taken here to give the interval after Q, in days (D) or hours (H), and the number of doses after X. For survival time, the PubChem record calls one and a half times the control and up active, and a quarter to a half above the control has no call in these data; cut-offs in other NCI protocols can differ.

For `C[N+](C)(C)/N=C/c1ccc(Cl)cc1`, the survivor count was 2 of 4 (dose: 50.0 mg/kg/injection, schedule: Q01DX001 (ip), vehicle: carboxymethylcellulose (CMC)); 2 of 4 (dose: 80.0 mg/kg/injection, schedule: Q01DX001 (ip), vehicle: carboxymethylcellulose (CMC)); 2 of 4 (dose: 100.0 mg/kg/injection, schedule: Q01DX001 (ip), vehicle: carboxymethylcellulose (CMC)); 0 of 4 under setting [1]; 0 of 4 under setting [2].
For the compound `CC(=O)C1=CC(=O)NC(=O)C1C(=O)CC(C)C` (stereo not given), the survivor count is listed as 0 of 6 (dose: 25.0 mg/kg/injection, schedule: Q01DX009 (ip), vehicle: Klucel (hydroxypropylcellulose) (HPC)) and 0 of 6 (dose: 50.0 mg/kg/injection, schedule: Q04DX003 (ip), vehicle: Klucel (hydroxypropylcellulose) (HPC)).
With `CC(=O)NC1=C(c2ccccc2)C(=O)c2ccccc21`, the T/C (dose: 100.0 mg/kg/injection, schedule: Q01DX001 (ip), vehicle: Klucel (hydroxypropylcellulose) (HPC)) was 125 % of control.
Turning to `CC1COCC(C)N1` (stereo not given), the survivor count (dose: 100.0 mg/kg/injection, schedule: Q01DX009 (ip), vehicle: saline) is 6 of 6.
Turning to `Cc1cc(S(=O)(=O)c2ccccc2)c(C)s1`, the survivor count under setting [3] is reported as 0 of 6.
Take `ClC1=C(Cl)[C@@]2(Cl)[C@H]3[C@H]4C[C@H]([C@@H]5O[C@H]45)[C@H]3[C@@]1(Cl)C2(Cl)Cl`: the survivor count by setting is: (dose: 16.0 mg/kg/injection, schedule: Q01DX009 (ip), vehicle: acetone) 1 of 6; (dose: 32.0 mg/kg/injection, schedule: Q01DX009 (ip), vehicle: acetone) 0 of 6; (dose: 50.0 mg/kg/injection, schedule: Q01DX001 (ip), vehicle: acetone) 2 of 6; (dose: 64.0 mg/kg/injection, schedule: Q01DX009 (ip), vehicle: acetone) 0 of 6; (dose: 100.0 mg/kg/injection, schedule: Q01DX001 (ip), vehicle: acetone) 2 of 6; (dose: 128.0 mg/kg/injection, schedule: Q01DX009 (ip), vehicle: acetone) 0 of 6. Further, the survivor count (dose: 200.0 mg/kg/injection, schedule: Q01DX001 (ip), vehicle: acetone) is listed as 0 of 6.
As to `Cc1c2oc3c(C)ccc(C(=O)NCCN4CCOCC4)c3nc-2c(C(=O)NCCN2CCOCC2)c(N)c1=O`, the survivor count under setting [4] is listed as 3 of 3.
With `CCCCCCCCCCCCCCCC(=O)N(CCC#N)CCCCCCCCCN(CCC#N)C(=O)CCCCCCCCCCCCCCC`, the survivor count (dose: 200.0 mg/kg/injection, schedule: Q01DX009 (ip), vehicle: saline) was 6 of 6.
`C=CCOc1cc[n+]([O-])cc1`: the survivor count under setting [3] is 0 of 6.
Consider `O=S(=O)(F)c1ccccc1S(=O)(=O)Cl`, for which the survivor count is on record as 1 of 6 under setting [1] and 0 of 6 under setting [2].
For the compound `CC(C)C1CCC(N)CC1` (stereo not given), the survivor count is, setting by setting: (dose: 150.0 mg/kg/injection, schedule: Q01DX001 (ip), vehicle: saline) 0 of 6; (dose: 300.0 mg/kg/injection, schedule: Q01DX001 (ip), vehicle: saline) 0 of 6.
Turning to `Nc1ccnc2cc(Cl)ccc12`, the survivor count (dose: 300.0 mg/kg/injection, schedule: Q01DX001 (ip), vehicle: other) is recorded as 0 of 6.
Take `CCOc1ccccc1N1C(=O)C=CC1=O`: the survivor count is, setting by setting: (dose: 50.0 mg/kg/injection, schedule: Q04DX002 (ip), vehicle: saline with Tween-80) 0 of 3; (dose: 100.0 mg/kg/injection, schedule: Q04DX002 (ip), vehicle: saline with Tween-80) 0 of 3; (dose: 200.0 mg/kg/injection, schedule: Q04DX002 (ip), vehicle: saline with Tween-80) 0 of 3; under setting [4], 0 of 3.
Take `CC1CCCC2=[N+]1CCCC2` (stereo not given): the survivor count under setting [2] is 1 of 4.
Take `CCCN1CCC(C(=O)CC)(c2cccc(O)c2)CC1`: the survivor count (dose: 400.0 mg/kg/injection, schedule: Q04DX002 (ip), vehicle: Klucel (hydroxypropylcellulose) (HPC)) is 0 of 3.
Regarding `O=c1[nH]cc(COCC(F)(F)F)c(=O)[nH]1`, the survivor count (dose: 400.0 mg/kg/injection, schedule: Q01DX005 (ip), vehicle: other) is 0 of 4.
In the case of `ON(C(=Nc1ccccc1)c1ccccc1)c1ccccc1`, the survivor count by setting is: (dose: 200.0 mg/kg/injection, schedule: Q01DX001 (ip), vehicle: saline) 0 of 4; under setting [3], 0 of 4.
For `Cc1c(Cl)cccc1NC(=O)Nc1cccc(C(F)(F)F)c1`, the survivor count (dose: 200.0 mg/kg/injection, schedule: Q01DX001 (ip), vehicle: saline with Tween-80) is 6 of 6.
